Experimental data taken from paper PMC9396407.
Where two headings read alike, the source gives them in different places. No constants are given. Whether binding was seen depends on the method and setting. Binding seen in cells or lysates may run through a third protein. A yes stands for co-enrichment or nearness to the bait. Other partners may have been found. Blank lines part the entries; values can stand above or below the molecule they belong to.

Amino acid sequences for entries named in this document (tags omitted).
UniProt Q92616: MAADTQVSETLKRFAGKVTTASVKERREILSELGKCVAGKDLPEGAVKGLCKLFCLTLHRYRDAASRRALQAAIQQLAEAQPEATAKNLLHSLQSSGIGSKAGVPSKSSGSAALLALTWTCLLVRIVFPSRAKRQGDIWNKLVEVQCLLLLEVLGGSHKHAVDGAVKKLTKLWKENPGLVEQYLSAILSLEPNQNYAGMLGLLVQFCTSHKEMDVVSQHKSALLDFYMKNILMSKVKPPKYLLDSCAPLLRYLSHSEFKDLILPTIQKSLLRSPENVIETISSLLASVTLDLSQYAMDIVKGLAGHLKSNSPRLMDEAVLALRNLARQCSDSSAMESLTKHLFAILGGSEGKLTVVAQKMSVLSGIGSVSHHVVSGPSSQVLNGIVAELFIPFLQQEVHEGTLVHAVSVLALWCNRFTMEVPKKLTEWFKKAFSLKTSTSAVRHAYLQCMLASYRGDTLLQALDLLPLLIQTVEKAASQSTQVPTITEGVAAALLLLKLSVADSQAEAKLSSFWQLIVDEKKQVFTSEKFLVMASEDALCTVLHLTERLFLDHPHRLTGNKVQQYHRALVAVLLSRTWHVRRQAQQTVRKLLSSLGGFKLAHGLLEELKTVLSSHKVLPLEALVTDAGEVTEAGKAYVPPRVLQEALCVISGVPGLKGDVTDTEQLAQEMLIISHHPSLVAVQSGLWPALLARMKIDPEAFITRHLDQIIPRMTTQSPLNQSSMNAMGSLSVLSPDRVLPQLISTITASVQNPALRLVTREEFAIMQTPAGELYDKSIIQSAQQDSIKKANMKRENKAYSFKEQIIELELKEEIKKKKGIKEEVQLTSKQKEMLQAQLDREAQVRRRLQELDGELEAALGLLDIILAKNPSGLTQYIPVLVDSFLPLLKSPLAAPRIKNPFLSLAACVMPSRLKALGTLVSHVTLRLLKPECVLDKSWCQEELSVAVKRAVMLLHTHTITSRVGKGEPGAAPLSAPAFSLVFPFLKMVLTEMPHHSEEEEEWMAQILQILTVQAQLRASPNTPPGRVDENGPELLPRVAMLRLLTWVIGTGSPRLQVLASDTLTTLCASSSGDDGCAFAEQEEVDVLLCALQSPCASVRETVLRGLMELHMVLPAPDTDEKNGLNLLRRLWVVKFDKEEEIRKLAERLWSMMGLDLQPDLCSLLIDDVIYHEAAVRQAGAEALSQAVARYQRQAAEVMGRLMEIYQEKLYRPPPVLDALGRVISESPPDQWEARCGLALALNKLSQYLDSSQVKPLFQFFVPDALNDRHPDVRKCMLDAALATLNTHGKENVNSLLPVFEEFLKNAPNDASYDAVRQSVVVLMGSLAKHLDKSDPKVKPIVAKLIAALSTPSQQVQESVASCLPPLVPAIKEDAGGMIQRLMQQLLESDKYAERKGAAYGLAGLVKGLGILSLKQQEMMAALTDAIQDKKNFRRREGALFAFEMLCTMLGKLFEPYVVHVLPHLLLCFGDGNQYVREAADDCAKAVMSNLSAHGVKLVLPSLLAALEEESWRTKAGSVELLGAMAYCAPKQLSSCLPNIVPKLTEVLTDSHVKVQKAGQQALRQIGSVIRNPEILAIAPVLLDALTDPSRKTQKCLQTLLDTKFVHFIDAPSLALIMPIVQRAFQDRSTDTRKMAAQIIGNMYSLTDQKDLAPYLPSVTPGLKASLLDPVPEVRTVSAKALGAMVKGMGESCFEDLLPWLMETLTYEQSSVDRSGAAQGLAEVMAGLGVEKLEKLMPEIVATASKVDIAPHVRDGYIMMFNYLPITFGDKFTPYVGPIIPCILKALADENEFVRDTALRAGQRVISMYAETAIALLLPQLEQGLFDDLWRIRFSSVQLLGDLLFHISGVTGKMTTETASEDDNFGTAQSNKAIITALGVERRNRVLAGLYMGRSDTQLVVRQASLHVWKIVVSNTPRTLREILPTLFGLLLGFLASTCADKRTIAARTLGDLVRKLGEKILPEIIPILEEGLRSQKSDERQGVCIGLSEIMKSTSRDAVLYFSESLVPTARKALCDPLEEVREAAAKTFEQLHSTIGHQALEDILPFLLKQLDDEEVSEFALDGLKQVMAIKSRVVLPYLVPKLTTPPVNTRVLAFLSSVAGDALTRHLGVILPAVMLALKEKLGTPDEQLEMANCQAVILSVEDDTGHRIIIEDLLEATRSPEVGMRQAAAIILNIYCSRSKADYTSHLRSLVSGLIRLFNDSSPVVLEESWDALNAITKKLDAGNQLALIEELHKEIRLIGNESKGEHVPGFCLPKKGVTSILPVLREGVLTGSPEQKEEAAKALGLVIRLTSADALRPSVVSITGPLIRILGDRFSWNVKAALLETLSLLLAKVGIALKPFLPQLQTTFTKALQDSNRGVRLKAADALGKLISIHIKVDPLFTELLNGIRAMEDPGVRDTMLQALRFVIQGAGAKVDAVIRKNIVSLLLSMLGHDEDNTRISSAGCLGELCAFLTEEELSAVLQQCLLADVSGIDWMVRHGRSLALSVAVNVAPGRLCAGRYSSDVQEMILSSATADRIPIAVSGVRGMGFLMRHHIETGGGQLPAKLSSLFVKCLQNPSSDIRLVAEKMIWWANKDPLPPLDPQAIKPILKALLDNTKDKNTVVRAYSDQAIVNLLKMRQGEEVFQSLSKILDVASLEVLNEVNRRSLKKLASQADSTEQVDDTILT
UniProt Q04637: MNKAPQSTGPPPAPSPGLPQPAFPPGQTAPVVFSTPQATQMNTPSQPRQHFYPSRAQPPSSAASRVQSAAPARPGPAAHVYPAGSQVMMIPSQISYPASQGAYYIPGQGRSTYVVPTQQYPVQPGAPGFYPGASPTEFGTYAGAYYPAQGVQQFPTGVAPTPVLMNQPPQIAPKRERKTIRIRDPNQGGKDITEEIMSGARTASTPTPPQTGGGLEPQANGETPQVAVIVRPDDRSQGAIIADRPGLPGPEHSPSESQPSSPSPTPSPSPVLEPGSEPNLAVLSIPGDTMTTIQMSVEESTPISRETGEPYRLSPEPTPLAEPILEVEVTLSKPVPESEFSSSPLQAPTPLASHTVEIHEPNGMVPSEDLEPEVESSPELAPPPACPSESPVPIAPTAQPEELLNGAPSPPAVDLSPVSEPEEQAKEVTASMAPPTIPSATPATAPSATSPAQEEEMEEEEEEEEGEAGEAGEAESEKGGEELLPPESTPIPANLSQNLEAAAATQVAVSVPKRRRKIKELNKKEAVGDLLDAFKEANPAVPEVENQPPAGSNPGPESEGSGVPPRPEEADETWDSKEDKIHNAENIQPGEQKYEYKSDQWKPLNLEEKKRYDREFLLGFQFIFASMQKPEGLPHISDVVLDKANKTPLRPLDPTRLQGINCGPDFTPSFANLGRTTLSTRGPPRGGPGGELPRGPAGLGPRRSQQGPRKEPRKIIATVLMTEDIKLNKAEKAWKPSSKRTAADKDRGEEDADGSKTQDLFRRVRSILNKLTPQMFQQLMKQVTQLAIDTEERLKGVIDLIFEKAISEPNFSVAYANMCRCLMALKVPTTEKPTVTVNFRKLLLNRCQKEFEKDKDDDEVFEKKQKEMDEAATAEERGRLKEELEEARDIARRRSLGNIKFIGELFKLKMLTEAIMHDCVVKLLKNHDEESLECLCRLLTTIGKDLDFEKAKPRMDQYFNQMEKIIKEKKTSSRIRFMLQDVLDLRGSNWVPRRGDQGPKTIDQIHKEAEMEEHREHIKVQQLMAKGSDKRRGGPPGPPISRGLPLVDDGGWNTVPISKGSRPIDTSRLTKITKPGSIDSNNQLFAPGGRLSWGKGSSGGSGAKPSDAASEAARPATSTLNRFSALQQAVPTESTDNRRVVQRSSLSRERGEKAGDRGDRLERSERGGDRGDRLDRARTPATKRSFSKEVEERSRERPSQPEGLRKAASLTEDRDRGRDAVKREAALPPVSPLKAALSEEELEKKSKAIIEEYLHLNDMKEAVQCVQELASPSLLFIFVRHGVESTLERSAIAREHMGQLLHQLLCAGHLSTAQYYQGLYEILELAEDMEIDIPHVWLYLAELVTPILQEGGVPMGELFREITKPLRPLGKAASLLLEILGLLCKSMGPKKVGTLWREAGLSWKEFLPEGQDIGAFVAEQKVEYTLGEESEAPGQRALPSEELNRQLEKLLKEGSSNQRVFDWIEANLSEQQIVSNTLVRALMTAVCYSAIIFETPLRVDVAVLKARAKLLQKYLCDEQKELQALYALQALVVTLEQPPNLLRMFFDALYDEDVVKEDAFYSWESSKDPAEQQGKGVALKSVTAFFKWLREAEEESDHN

Legend:
[1] = target: 3xFlag-tagged GCN1 (endogenously tagged, knock-in HEK293T cells) (human (endogenous in HEK293T)) (UniProt Q92616); test: affinity purification with mass spectrometry; anti-Flag immunoprecipitates from HEK293T cells endogenously expressing 3xFlag-GCN1, steady state, n = 1; negative control was HEK293T cells not expressing 3xFlag-GCN1; SAINT score >=0.9
[2] = target: 3xFlag-tagged GCN1 (endogenously tagged, knock-in HEK293T cells) (human (endogenous in HEK293T)) (UniProt Q92616); test: as above; remark: listed apart in the source

- binding [1]: binds
Molecule: EIF4G1 (from UniProt Q04637 1-1599)

- binding [2]: binds
B1: GYGYF2 (protein, UniProt Q6Y7W6 1-1299)
chain: MAAETQTLNFGPEWLRALSSGGSITSPPLSPALPKYKLADYRYGREEMLALFLKDNKIPSDLLDKEFLPILQEEPLPPLALVPFTEEEQRNFSMSVNSAAVLRLTGRGGGGTVVGAPRGRSSSRGRGRGRGECGFYQRSFDEVEGVFGRGGGREMHRSQSWEERGDRRFEKPGRKDVGRPNFEEGGPTSVGRKHEFIRSESENWRIFREEQNGEDEDGGWRLAGSRRDGERWRPHSPDGPRSAGWREHMERRRRFEFDFRDRDDERGYRRVRSGSGSIDDDRDSLPEWCLEDAEEEMGTFDSSGAFLSLKKVQKEPIPEEQEMDFRPVDEGEECSDSEGSHNEEAKEPDKTNKKEGEKTDRVGVEASEETPQTSSSSARPGTPSDHQSQEASQFERKDEPKTEQTEKAEEETRMENSLPAKVPSRGDEMVADVQQPLSQIPSDTASPLLILPPPVPNPSPTLRPVETPVVGAPGMGSVSTEPDDEEGLKHLEQQAEKMVAYLQDSALDDERLASKLQEHRAKGVSIPLMHEAMQKWYYKDPQGEIQGPFNNQEMAEWFQAGYFTMSLLVKRACDESFQPLGDIMKMWGRVPFSPGPAPPPHMGELDQERLTRQQELTALYQMQHLQYQQFLIQQQYAQVLAQQQKAALSSQQQQQLALLLQQFQTLKMRISDQNIIPSVTRSVSVPDTGSIWELQPTASQPTVWEGGSVWDLPLDTTTPGPALEQLQQLEKAKAAKLEQERREAEMRAKREEEERKRQEELRRQQEEILRRQQEEERKRREEEELARRKQEEALRRQREQEIALRRQREEEERQQQEEALRRLEERRREEEERRKQEELLRKQEEEAAKWAREEEEAQRRLEENRLRMEEEAARLRHEEEERKRKELEVQRQKELMRQRQQQQEALRRLQQQQQQQQLAQMKLPSSSTWGQQSNTTACQSQATLSLAEIQKLEEERERQLREEQRRQQRELMKALQQQQQQQQQKLSGWGNVSKPSGTTKSLLEIQQEEARQMQKQQQQQQQHQQPNRARNNTHSNLHTSIGNSVWGSINTGPPNQWASDLVSSIWSNADTKNSNMGFWDDAVKEVGPRNSTNKNKNNASLSKSVGVSNRQNKKVEEEEKLLKLFQGVNKAQDGFTQWCEQMLHALNTANNLDVPTFVSFLKEVESPYEVHDYIRAYLGDTSEAKEFAKQFLERRAKQKANQQRQQQQLPQQQQQQPPQQPPQQPQQQDSVWGMNHSTLHSVFQTNQSNNQQSNFEAVQSGKKKKKQKMVRADPSLLGFSVNASSERLNMGEIETLDDY
